# Test results reported in PubChem BioAssay AID485298 (National Center for Advancing Translational Sciences (NCATS), 2010).
# Hit rate of the full screen: of about 320,000 compounds, about 740 (0.23%) were called active. Inconclusive results, whose numbers are uncertain, are shown with a selection of clear calls. Calls come from the whole dose curve; as a rule, active = well fitted activation curve with a large enough effect; inconclusive = small, poorly fitted or top-dose-only effect; inactive = no such curve, though single readings can be large or run the other way. Where the call is inconclusive, the potency comes from a doubtful curve fit.
# Assay: qHTS Assay for Small Molecule Inhibitors of Mitochondrial Division or Activators of Mitochondrial Fusion; note: nearly all actives have a fitted effect of over 45% in size;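 for growth rescue (activation): temperature-sensitive fusion mutants such as fzo1-1 at 37 °C on non-fermentable ethanol glycerol medium; % of control where 0% means no effect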
# Settings: S. cerevisiae fusion-defective mutant growth rescue, CellTiterGlo 48 h; growth rescue (activation): at 46.1 µM (top of the series) unless noted
# Method in brief: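 Luminescent cell viability in 1536-well qHTS format served as the measure of rescued growth in ts fusion-mutant S. cerevisiae cultured on non-fermentable YPEG for 48 hours at 37C.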
# Potency is the fitted concentration of half-maximal effect.
SMILES,growth rescue (activation),Potency
CCc1nnc(NC(=O)Cc2ccc(S(=O)(=O)N3CCCCC3)cc2)s1,inactive: -3.12%,
Cc1ccc(OCC(=O)NNC(=S)NC(=O)c2cccs2)c(C)c1,inactive: 4.57%,
Cc1c(C(=O)OCCOC(C)C)[nH]c2c1C(=O)CC(c1ccco1)C2 (stereo not drawn),inactive: 11%,
O=C(CO/N=C/c1ccc(OC(F)F)cc1)NCc1ccc(F)cc1,,active: 6.31 µM
COc1ccc(C(C)(C)C)cc1NC(=O)c1[nH]c(C)c(C(C)=O)c1C,,"inconclusive: 12.6 µM [activator, partial curve]"
Oc1ccc(-c2csc(Nc3ccccn3)n2)cc1,inactive: -4.35%,
O=C(CN1c2ccccc2Sc2ccccc21)NNC(=S)Nc1ccc(Cl)cc1,inactive: 27.6%,
COCCNC(=O)CSc1c2c(nc3ccc(Cl)cc13)CCCC2,,active: 17.8 µM
CCCc1nc(SCC(=O)c2ccc(OC)cc2)c2ccccc2n1,,"inconclusive: 20 µM [activator, single point]"
O=C(COC(=O)/C=C/c1ccco1)NCc1ccco1,inactive: -2.82%,
NC(=S)Nc1cccc2cn[nH]c12,,"inconclusive: 22.4 µM [activator, partial curve, poor fit]"
Cc1cc(C)c(NC(=O)CSCc2nc3sc(C)c(C)c3c(=O)[nH]2)c(Cl)c1,inactive: 7.07%,
Cc1ccc(C(=O)OCC(=O)NC(C)C)cc1S(=O)(=O)N1CCOCC1,,"inconclusive: 17.8 µM [activator, partial curve]"
Cc1ccc2nc(-c3ccccn3)cc(C(=O)Nc3ccc(S(=O)(=O)N4CCOCC4)cc3)c2c1,,"inconclusive: 3.55 µM [activator, single point]"
O=C(NNc1cc(N2CCOCC2)nc(N2CCOCC2)n1)c1ccc(Cl)c(Cl)c1,inactive: -7.65%,
CC(C)(C)c1ccc(C(=O)N2CCC(NC(=O)c3ccccc3)CC2)cc1,,active: 35.5 µM
Clc1ccc(CN2CC[C@H]3C=CCc4cccc(c43)C2)cc1,inactive: 11%,
O=C1[C@H]2C(c3ccccc3)=NN(c3ccccc3)[C@H]2C(=O)N1c1ccccc1,,"inconclusive: 11.2 µM [activator, partial curve]"
CC(C)N1CCc2c(sc(NC(=S)NC(=O)c3ccccc3)c2C#N)C1,,"inconclusive: 3.16 µM [activator, single point]"
COc1cccc(C2=CC(=O)C[C@H](c3ccc(Cl)cc3)C2)c1,,"inconclusive: 28.2 µM [activator, single point]"
COC(=O)C1=C(C)NC(=O)/C1=C\N(C)C,,"inconclusive: 35.5 µM [activator, single point]"
O=C(Nc1cccc(S(=O)(=O)Nc2ccc(Cl)cc2)c1)c1ccccn1,,"inconclusive: 22.4 µM [activator, single point]"
Cc1ccc2[nH]c(C(=O)O)c(NC(=O)CN3CCN(c4cccc(C)c4C)CC3)c2c1,inactive: 0.0187%,
Cc1nc2sc(C(=O)c3ccccc3)c(N)c2c2c1CCCC2,,active: 14.1 µM

# Filtered by structure, those above containing an aryl methoxy group.
SMILES,growth rescue (activation),Potency
COc1ccc(C(C)(C)C)cc1NC(=O)c1[nH]c(C)c(C(C)=O)c1C,,"inconclusive: 12.6 µM [activator, partial curve]"
CCCc1nc(SCC(=O)c2ccc(OC)cc2)c2ccccc2n1,,"inconclusive: 20 µM [activator, single point]"
COc1cccc(C2=CC(=O)C[C@H](c3ccc(Cl)cc3)C2)c1,,"inconclusive: 28.2 µM [activator, single point]"

# Additional structures:

SMILES,growth rescue (activation),Potency
Cc1ccccc1S(=O)(=O)Cc1ccc(C(=O)NC(C)c2ccccc2)o1 (stereo not drawn),,"inconclusive: 8.91 µM [activator, partial curve]"
CN(/N=C/c1ccccc1O)C(=S)c1ccccc1,inactive: -9.28%,
O=C(c1cc(S(=O)(=O)N2CCN(c3ccccc3)CC2)ccc1Cl)N1CCCCCCC1,,active: 14.1 µM
C/C(=N/NS(=O)(=O)c1ccc(C)cc1)c1cccc(NC(=O)c2cccc(Cl)c2)c1,inactive: 8.43%,
COc1ccc(CCn2c(C3CCCCC3)nc3c(c(=O)c4ccccc4n3C)c2=O)cc1,inactive: -0.563%,
CSc1nnc(CCCCCCCCc2nnc(SC)o2)o1,inactive: -4.03%,
O=C(CSc1ccc(Br)cc1)Nc1ccc(N2CCOCC2)cc1,inactive: 3.31%,
N#Cc1ccc(C(=O)Nc2cccc(NC(=O)c3ccco3)c2)c(F)c1,,"inconclusive: 35.5 µM [activator, single point]"
C=CCOC(=O)C(C#N)c1nc2ccccc2nc1N1CCCC1 (stereo not drawn),inactive: 9.32%,
CCOC(=O)N1CCC(=C2c3ccc(Cl)cc3CCc3cccnc32)CC1,,"inconclusive: 17.8 µM [activator, single point]"
O[C@@H]1COC(Nc2ccc(N=Nc3ccccc3)cc2)C[C@@H]1O (stereo partly drawn),inactive: -2.66%,
Cn1c(-[n+]2c(-c3ccccc3)cc(-c3ccccc3)cc2-c2ccccc2)nc2c([N+](=O)[O-])cccc21,,"inconclusive: 14.1 µM [activator, partial curve]"
O=C(CSc1nc2cccnc2n1Cc1ccccc1)NCc1ccco1,,"inconclusive: 5.62 µM [activator, single point]"
CC(NC(=O)CCc1ccccc1)c1cc2c(cc1Cl)OCCO2 (stereo not drawn),,"inconclusive: 22.4 µM [activator, single point]"
Cc1cccc(-n2c(Cc3ccccc3)nnc2SCc2ccc([N+](=O)[O-])cc2)c1,,"inconclusive: 20 µM [activator, single point]"
Cc1nc(CS(=O)(=O)c2ccc(Cl)cc2)cc(Sc2ccc(Cl)cc2)n1,,"inconclusive: 25.1 µM [activator, single point]"
CCOc1ccc(N/C(=N/c2nc(C)cc(C)n2)NC(C)=O)cc1,,"inconclusive: 31.6 µM [activator, single point]"
COc1ccc(C)cc1NC(=O)c1cccc(-c2ccc(OC(C)=O)cc2)c1,,"inconclusive: 17.8 µM [activator, single point]"
C=CCNC(=O)/C(C#N)=C/c1c(N(Cc2ccccc2)Cc2ccccc2)nc2ccccn2c1=O,,"inconclusive: 12.6 µM [activator, partial curve]"
O=C(CN1CCN(c2ccc(F)cc2)CC1)Nc1cccc(C(F)(F)F)c1,,"inconclusive: 5.62 µM [activator, single point]"
CCNc1nc(NCC)nc(ON=C(C)C)n1,inactive: -2.42%,
COc1cccc(N2CCN(C(=O)c3ccc4nc(N5CCCCC5)sc4c3)CC2)c1,,"inconclusive: 28.2 µM [activator, single point]"
C=CCn1c(SCC(=O)C(C)(C)C)nnc1-c1cccs1,inactive: 1.34%,
CCc1sc(C(=O)Nc2ncccc2C)cc1C,,"inconclusive: 0.562 µM [activator, full curve, poor fit]"
